PubChem BioAssay AID1159584 | Peter MacCallum Cancer Centre, 2016

Assay: 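Knock-downs that harm CDH1-null cells more than parental MCF10A cells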 (primary screen)
Cell system: human MCF10A breast epithelial cells, parental and CDH1-null
Reagents: siRNA against human genes
Read-out: 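Cell viability by CellTiter-Glo ATP luminescence, each line scaled to the mean of mock wells across plates, then CDH1-null over parental ratio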
Reading the numbers: CDH1-null / parental viability ratio: higher = CDH1-null cells survive relatively better than parental; CDH1-null viability vs mock: higher = more viable CDH1-null cells; parental viability vs mock: higher = more viable parental cells
Shown is one part, drawn at random, of about 18,000 reagents tested. Reagent sequences are not shown. The record does not give: the amount of reagent, the time to read-out.

| gene symbol | CDH1-null / parental viability ratio | CDH1-null viability vs mock (fraction of mock) | parental viability vs mock (fraction of mock) |
| --- | --- | --- | --- |
| UCN (GeneID 7349) | 1.23 | 0.69 | 0.56 |
| ZNF227 (GeneID 7770) | 0.76 | 0.79 | 1.04 |
| ATP4A (GeneID 495) | 0.93 | 1.02 | 1.1 |
| N4BP2L2 (GeneID 10443) | 1.4 | 0.63 | 0.45 |
| WDR74 (GeneID 54663) | 1 | 0.66 | 0.66 |
| SSU72 (GeneID 29101) | 0.87 | 0.7 | 0.8 |
| PARP11 (GeneID 57097) | 1.03 | 0.72 | 0.7 |
| METAP1D (GeneID 254042) | 1.19 | 0.5 | 0.42 |
| KRTAP10-5 (GeneID 386680) | 0.98 | 0.89 | 0.91 |
| GPR158 (GeneID 57512) | 0.8 | 0.8 | 1 |
| CFAP77 (GeneID 389799) | 0.97 | 0.6 | 0.62 |
| ETS2-AS1 (GeneID 400867) | 1.05 | 1.07 | 1.02 |
| ZFAND3 (GeneID 60685) | 1.04 | 0.85 | 0.82 |
| DPH2 (GeneID 1802) | 0.96 | 0.5 | 0.52 |
| COX5A (GeneID 9377) | 1.07 | 0.86 | 0.8 |
| OLIG3 (GeneID 167826) | 0.82 | 0.74 | 0.9 |
| PTPN9 (GeneID 5780) | 1.35 | 1.11 | 0.82 |
| ZNF671 (GeneID 79891) | 0.87 | 0.6 | 0.69 |
| RSBN1L (GeneID 222194) | 0.95 | 0.76 | 0.8 |
| ARRDC1-AS1 (GeneID 85026) | 0.76 | 0.75 | 0.99 |
| USP38 (GeneID 84640) | 1.28 | 0.77 | 0.6 |
| PRC1 (GeneID 9055) | 0.91 | 0.63 | 0.69 |
| EPHX3 (GeneID 79852) | 0.95 | 0.72 | 0.76 |
| PCDHGB3 (GeneID 56102) | 0.77 | 0.48 | 0.62 |
| SAMD9L (GeneID 219285) | 1.01 | 0.97 | 0.96 |
| UBTD1 (GeneID 80019) | 1.12 | 0.9 | 0.8 |
| TBX6 (GeneID 6911) | 1.06 | 0.93 | 0.88 |
| ARMC8 (GeneID 25852) | 0.85 | 0.71 | 0.84 |
| POLR3D (GeneID 661) | 1.02 | 0.9 | 0.88 |
| H2AC25 (GeneID 92815) | 1 | 0.62 | 0.62 |
| CPT1B (GeneID 1375) | 1.24 | 1.12 | 0.9 |
| GCLM (GeneID 2730) | 1.1 | 1.01 | 0.92 |
| PKD2L2 (GeneID 27039) | 1.12 | 0.99 | 0.88 |
| TP53BP2 (GeneID 7159) | 0.94 | 0.78 | 0.83 |
| CCT4 (GeneID 10575) | 1.03 | 0.78 | 0.76 |
| ALDH4A1 (GeneID 8659) | 0.98 | 1.02 | 1.04 |
| TSSK3 (GeneID 81629) | 0.69 | 0.57 | 0.83 |
| UBP1 (GeneID 7342) | 0.77 | 0.6 | 0.78 |
| NFKB2 (GeneID 4791) | 0.83 | 0.78 | 0.94 |
| FNBP4 (GeneID 23360) | 0.94 | 0.73 | 0.78 |
| VSIG10 (GeneID 54621) | 1.23 | 1.08 | 0.88 |
| SLC1A1 (GeneID 6505) | 0.75 | 0.8 | 1.06 |
| OR1D2 (GeneID 4991) | 1.15 | 0.75 | 0.65 |
| PDCD7 (GeneID 10081) | 0.89 | 0.31 | 0.35 |
| KDM5D (GeneID 8284) | 0.93 | 0.78 | 0.84 |
| EIF1AX (GeneID 1964) | 1.08 | 0.7 | 0.65 |
| CSNK2B (GeneID 1460) | 1.05 | 0.97 | 0.92 |
| TCEA1 (GeneID 6917) | 0.95 | 0.89 | 0.94 |
| CHST15 (GeneID 51363) | 1.13 | 1.04 | 0.92 |
| SLC26A8 (GeneID 116369) | 0.98 | 0.9 | 0.92 |
| RALGPS2 (GeneID 55103) | 0.93 | 0.76 | 0.82 |
| TTLL4 (GeneID 9654) | 1.1 | 0.98 | 0.89 |
| PRKAB1 (GeneID 5564) | 0.78 | 0.7 | 0.9 |
| ENDOG (GeneID 2021) | 0.54 | 0.36 | 0.67 |
| SPDL1 (GeneID 54908) | 1.01 | 0.68 | 0.67 |
| H2AC12 (GeneID 85235) | 0.69 | 0.62 | 0.9 |
| ZNF133 (GeneID 7692) | 1.26 | 0.68 | 0.54 |
| FOXO4 (GeneID 4303) | 1.12 | 1.12 | 1 |
| MFF (GeneID 56947) | 0.9 | 0.88 | 0.98 |
| OR52B2 (GeneID 255725) | 1.02 | 0.57 | 0.56 |
| AFF2 (GeneID 2334) | 1.04 | 1.12 | 1.08 |
| THAP8 (GeneID 199745) | 0.9 | 0.61 | 0.68 |
| SHANK1 (GeneID 50944) | 1.29 | 0.98 | 0.76 |
| CHD7 (GeneID 55636) | 0.98 | 0.82 | 0.84 |
| ZNF329 (GeneID 79673) | 0.95 | 0.82 | 0.86 |
| OXSM (GeneID 54995) | 0.99 | 0.77 | 0.78 |
| HES2 (GeneID 54626) | 1.14 | 1.05 | 0.92 |
| LHFPL4 (GeneID 375323) | 1.06 | 1.03 | 0.97 |

Laid out differently: entries from further up.
RSBN1L (GeneID 222194): CDH1-null / parental viability ratio = 0.95; CDH1-null viability vs mock (fraction of mock) = 0.76; parental viability vs mock (fraction of mock) = 0.8
ARRDC1-AS1 (GeneID 85026): CDH1-null / parental viability ratio = 0.76; CDH1-null viability vs mock (fraction of mock) = 0.75; parental viability vs mock (fraction of mock) = 0.99
USP38 (GeneID 84640): CDH1-null / parental viability ratio = 1.28; CDH1-null viability vs mock (fraction of mock) = 0.77; parental viability vs mock (fraction of mock) = 0.6
PRC1 (GeneID 9055): CDH1-null / parental viability ratio = 0.91; CDH1-null viability vs mock (fraction of mock) = 0.63; parental viability vs mock (fraction of mock) = 0.69
EPHX3 (GeneID 79852): CDH1-null / parental viability ratio = 0.95; CDH1-null viability vs mock (fraction of mock) = 0.72; parental viability vs mock (fraction of mock) = 0.76
